We go through 1 molecule from publication doi:10.1101/2025.07.09.663943, “A multiplex extracellular interactome screening method employing high-avidity nanoparticles” (bioRxiv, 2025).

Results are given in words; binding and its absence hold for the method and conditions named. Some results given as binding are weak or reduced against the parent protein; the word gives no strength.

For this test, the target named is T1, CEACAM4 ECD-hFc-ST3 (human) (UniProt O75871).
T1 sequence: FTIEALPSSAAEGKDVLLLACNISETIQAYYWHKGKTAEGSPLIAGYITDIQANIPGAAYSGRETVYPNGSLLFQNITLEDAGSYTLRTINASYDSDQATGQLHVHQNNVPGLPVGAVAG
Put plainly: Multiplex Interactome Assay (MPIA; bead-based, Luminex FLEXMAP 3D); prey nanoparticle preparation of the quality control in Fig. 3B; run and kind of SC3 bead (monomeric or dimeric) not stated; both purified.

B1: PD-L2 ECD-hFc-ST3 (Fc fusion, UniProt Q9BQ51 20-220)
chain: LFTVTVPKELYIIEHGSNVTLECNFDTGSHVNLGAITASLQKVENDTSPHRERATLLEEQLPLGKASFHIPQVQVRDEGQYQCIIIYGVAWDYKYLTLKVKASYRKINTHILKVPETDEVELTCQATGYPLAEVSWPNVSVPANTSHSRTPEGLYQVTSVLRLKPPPGRNFSCVFWNTHVRELTLASIDLQSQMEPRTHPT
Consider B1, for which the binding entry was “binds”.
